Consider 14 molecules from paper PMC8910062.

Protein sequences, listed by entry. Tags and fused reporters are not part of them. Lines headed by an entry give the natural chain unless they say otherwise; changes in a name come on top. Chains listed by the source or under a name are the forms on record and can include a tag or linker. Residues count along the entry.
UniProt P13569: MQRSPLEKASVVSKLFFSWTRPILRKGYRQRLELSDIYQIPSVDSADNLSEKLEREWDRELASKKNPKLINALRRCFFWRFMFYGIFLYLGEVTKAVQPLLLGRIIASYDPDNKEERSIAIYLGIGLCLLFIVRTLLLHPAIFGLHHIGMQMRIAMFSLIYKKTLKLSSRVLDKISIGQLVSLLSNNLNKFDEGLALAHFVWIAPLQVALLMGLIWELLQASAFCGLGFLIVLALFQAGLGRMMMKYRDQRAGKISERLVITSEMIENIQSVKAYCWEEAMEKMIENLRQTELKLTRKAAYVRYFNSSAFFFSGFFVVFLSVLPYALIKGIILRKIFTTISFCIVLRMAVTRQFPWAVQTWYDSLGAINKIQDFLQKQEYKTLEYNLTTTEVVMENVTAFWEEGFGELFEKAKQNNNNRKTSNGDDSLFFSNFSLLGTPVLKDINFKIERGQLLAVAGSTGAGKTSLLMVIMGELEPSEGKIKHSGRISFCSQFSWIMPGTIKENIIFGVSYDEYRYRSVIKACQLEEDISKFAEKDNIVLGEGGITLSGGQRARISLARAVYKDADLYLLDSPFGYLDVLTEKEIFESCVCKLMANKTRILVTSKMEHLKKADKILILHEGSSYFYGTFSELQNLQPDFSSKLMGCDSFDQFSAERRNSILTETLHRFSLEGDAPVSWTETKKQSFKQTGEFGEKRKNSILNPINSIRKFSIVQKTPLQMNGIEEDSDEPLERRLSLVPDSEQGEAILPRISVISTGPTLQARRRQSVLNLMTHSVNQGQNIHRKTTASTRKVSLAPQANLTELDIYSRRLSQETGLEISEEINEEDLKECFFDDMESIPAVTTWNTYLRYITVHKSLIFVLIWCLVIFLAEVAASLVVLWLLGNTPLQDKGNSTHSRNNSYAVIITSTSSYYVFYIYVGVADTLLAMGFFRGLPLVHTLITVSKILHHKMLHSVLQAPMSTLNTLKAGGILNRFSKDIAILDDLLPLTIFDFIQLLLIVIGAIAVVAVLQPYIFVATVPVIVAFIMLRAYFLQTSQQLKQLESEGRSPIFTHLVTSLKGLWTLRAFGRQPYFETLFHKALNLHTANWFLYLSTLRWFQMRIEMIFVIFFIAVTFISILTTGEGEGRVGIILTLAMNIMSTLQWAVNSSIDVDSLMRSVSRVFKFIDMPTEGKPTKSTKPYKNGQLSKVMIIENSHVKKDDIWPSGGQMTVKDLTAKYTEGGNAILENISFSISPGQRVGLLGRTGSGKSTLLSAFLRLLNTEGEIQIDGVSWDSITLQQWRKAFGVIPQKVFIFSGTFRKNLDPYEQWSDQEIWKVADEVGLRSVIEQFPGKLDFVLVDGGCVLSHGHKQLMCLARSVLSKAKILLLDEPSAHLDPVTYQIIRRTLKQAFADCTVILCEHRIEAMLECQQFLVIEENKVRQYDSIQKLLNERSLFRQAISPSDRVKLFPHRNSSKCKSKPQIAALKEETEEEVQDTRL
FLAG-BirA*-∆F508-CFTR (P13569, form named): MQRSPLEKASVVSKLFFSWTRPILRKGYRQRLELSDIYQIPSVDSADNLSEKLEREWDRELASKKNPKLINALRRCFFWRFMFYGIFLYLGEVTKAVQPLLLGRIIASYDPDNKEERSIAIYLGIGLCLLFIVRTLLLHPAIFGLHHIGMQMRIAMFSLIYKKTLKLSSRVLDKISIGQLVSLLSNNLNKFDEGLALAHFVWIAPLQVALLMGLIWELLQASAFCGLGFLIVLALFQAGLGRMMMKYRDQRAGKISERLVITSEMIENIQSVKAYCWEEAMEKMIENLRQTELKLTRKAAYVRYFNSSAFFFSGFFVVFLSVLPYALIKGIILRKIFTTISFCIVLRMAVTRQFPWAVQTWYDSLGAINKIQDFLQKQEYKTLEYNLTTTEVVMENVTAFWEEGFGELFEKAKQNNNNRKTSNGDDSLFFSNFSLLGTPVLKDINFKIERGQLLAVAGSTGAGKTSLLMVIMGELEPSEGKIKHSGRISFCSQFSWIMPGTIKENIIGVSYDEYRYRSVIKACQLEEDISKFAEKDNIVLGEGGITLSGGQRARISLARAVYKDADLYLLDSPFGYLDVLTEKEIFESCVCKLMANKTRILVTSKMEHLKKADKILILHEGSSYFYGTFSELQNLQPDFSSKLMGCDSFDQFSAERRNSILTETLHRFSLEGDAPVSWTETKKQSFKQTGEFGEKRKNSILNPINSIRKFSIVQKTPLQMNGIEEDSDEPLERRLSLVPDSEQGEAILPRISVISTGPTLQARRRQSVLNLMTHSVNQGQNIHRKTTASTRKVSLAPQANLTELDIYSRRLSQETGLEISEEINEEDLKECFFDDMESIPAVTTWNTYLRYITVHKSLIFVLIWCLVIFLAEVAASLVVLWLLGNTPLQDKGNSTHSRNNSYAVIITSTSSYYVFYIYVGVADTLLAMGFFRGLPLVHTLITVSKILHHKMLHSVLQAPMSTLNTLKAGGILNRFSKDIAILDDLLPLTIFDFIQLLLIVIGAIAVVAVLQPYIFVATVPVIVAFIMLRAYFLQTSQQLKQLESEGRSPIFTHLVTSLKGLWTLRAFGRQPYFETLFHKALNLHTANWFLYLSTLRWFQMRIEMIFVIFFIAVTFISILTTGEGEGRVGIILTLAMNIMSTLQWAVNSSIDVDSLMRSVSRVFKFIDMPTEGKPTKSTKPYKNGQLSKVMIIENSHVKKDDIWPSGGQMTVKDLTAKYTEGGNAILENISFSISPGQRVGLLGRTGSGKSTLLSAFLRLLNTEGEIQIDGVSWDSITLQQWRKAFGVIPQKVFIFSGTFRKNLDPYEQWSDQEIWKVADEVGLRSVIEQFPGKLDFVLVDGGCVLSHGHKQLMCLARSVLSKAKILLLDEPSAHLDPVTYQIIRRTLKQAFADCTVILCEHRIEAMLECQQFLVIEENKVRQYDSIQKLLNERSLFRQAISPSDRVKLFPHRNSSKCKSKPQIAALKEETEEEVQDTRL
UniProt O00161: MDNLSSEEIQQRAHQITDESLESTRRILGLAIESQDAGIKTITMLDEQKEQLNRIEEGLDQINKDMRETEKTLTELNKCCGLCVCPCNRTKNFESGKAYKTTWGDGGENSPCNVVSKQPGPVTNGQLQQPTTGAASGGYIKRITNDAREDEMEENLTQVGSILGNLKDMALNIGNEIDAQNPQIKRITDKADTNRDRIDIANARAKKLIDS
UniProt O95292: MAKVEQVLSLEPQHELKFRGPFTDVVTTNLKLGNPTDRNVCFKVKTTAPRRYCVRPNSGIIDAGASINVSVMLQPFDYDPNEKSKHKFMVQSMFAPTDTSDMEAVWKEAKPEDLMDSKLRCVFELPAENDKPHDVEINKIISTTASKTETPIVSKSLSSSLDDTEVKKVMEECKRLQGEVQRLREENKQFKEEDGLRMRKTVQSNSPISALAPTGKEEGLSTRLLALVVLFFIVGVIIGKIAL
UniProt Q9UNE7: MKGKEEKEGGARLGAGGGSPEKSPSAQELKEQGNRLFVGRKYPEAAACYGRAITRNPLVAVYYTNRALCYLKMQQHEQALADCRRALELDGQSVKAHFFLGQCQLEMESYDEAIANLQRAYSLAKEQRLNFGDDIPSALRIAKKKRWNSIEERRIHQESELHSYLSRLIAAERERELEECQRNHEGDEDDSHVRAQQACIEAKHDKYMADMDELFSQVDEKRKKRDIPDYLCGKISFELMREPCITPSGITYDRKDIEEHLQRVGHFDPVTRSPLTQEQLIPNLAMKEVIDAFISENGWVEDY
UniProt Q8IWU2: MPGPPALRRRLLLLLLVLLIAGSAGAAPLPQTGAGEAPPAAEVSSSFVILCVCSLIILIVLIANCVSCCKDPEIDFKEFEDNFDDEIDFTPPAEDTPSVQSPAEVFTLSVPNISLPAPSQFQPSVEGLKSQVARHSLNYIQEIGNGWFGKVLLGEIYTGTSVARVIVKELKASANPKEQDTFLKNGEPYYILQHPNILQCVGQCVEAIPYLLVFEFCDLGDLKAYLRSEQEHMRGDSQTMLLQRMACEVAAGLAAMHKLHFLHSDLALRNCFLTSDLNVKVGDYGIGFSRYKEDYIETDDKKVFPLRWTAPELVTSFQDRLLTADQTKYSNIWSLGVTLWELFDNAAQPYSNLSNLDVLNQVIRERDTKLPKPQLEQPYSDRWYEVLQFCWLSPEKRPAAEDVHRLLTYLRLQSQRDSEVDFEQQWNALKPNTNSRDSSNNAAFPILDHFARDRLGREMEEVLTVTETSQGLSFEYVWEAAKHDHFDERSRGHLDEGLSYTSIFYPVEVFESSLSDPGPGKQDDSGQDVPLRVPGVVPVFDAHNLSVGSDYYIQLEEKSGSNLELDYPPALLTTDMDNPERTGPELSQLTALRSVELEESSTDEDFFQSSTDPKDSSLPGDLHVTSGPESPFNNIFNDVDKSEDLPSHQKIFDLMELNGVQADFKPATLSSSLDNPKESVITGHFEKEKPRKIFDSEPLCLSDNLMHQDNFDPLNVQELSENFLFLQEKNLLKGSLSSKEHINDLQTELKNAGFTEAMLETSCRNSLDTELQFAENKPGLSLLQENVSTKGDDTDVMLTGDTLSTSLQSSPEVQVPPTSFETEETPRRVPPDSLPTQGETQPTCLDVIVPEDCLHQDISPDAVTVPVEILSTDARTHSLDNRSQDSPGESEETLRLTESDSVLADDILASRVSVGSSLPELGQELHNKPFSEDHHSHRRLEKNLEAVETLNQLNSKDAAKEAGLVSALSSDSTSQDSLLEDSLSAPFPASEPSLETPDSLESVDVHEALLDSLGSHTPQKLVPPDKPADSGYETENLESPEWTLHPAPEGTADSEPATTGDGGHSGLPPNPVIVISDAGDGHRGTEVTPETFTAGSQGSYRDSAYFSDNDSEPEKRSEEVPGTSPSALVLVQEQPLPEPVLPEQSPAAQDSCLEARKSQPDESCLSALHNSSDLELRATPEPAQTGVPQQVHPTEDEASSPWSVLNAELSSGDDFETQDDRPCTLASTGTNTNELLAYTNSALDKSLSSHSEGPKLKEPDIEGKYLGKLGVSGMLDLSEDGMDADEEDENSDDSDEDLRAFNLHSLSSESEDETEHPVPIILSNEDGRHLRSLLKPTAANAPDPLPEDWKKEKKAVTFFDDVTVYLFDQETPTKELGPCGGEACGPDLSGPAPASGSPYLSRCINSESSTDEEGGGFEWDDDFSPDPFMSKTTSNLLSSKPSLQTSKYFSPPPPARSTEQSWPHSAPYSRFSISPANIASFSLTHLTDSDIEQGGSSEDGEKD
UniProt O43852, residues 20-315: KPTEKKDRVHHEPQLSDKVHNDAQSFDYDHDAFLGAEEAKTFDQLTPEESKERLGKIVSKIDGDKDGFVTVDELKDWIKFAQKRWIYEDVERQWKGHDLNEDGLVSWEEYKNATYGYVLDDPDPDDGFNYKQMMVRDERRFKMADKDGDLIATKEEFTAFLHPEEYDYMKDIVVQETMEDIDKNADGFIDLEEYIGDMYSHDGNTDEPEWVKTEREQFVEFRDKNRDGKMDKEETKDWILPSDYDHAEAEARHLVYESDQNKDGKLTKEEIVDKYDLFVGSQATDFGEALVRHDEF

Results are given in words; binding and its absence hold for the method and conditions named. Binding seen in cells or lysates may run through a third protein. A yes stands for co-enrichment or nearness to the bait. Other partners may have been found.

Assay [1] concerns the target FLAG-BirA*-CFTR (wild type Cystic Fibrosis Transmembrane Conductance Regulator) (UniProt P13569). As to the kind of experiment: proximity labelling; BioID in living HEK293 Flp-In T-REx cells: FLAG-BirA*-CFTR or FLAG-BirA*-∆F508-CFTR bait induced with 1 µg/mL tetracycline, 50 µM biotin; biotinylated preys captured on streptavidin beads and identified by mass spectrometry; SAINT against FlagBirA* alone, BFDR ≤ 0.01; WT in vehicle (0.1% DMSO); ∆F508 in vehicle or Orkambi (3 µM VX-809 + 1 µM VX-770), with or without MG132.

The next assay concerns the target FLAG-BirA*-∆F508-CFTR (UniProt P13569). Described as above.

For “Synaptosome Associated Protein 23 (SNAP23) (from UniProt O00161 1-211)”, the binding entry (in assay [1]; with FLAG-BirA*-∆F508-CFTR) was “binds” each time.

With “VAMP-Associated Protein B (VAPB) (from UniProt O95292 1-243)”, the binding entry (in assay [1]; in the assay with FLAG-BirA*-∆F508-CFTR) was “binds” throughout. Consider “STIP1 Homology and U-Box Containing Protein 1 (STUB1) (from UniProt Q9UNE7 1-303)”, for which the binding entry (in assay [1]; in the assay with FLAG-BirA*-∆F508-CFTR) was “binds” throughout. For “Lemur Tyrosine Kinase 2 (LMTK2) (from UniProt Q8IWU2 1-1503)”, in assay [1], the binding entry is “binds”. Take CLTC (from UniProt Q00610 1-1675): the binding entry (in assay [1]; in the assay with FLAG-BirA*-∆F508-CFTR) was “binds” throughout. As to “Calumenin (CALU) (from UniProt O43852 20-315)”, the binding entry (in assay [1]; in the assay with FLAG-BirA*-∆F508-CFTR) was “binds” in each case.

B1: syntaxin 6 (STX6) (protein, UniProt O43752 1-255)
chain: MSMEDPFFVVKGEVQKAVNTAQGLFQRWTELLQDPSTATREEIDWTTNELRNNLRSIEWDLEDLDETISIVEANPRKFNLDATELSIRKAFITSTRQVVRDMKDQMSTSSVQALAERKNRQALLGDSGSQNWSTGTTDKYGRLDRELQRANSHFIEEQQAQQQLIVEQQDEQLELVSGSIGVLKNMSQRIGGELEEQAVMLEDFSHELESTQSRLDNVMKKLAKVSHMTSDRRQWCAIAILFAVLLVVLILFLVL
As to B1, the binding entry (in assay [1]; with FLAG-BirA*-∆F508-CFTR) was “binds” each time.

B2: Syntaxin 5 (STX5) (protein, UniProt Q13190 1-355)
chain: MIPRKRYGSKNTDQGVYLGLSKTQVLSPATAGSSSSDIAPLPPPVTLVPPPPDTMSCRDRTQEFLSACKSLQTRQNGIQTNKPALRAVRQRSEFTLMAKRIGKDLSNTFAKLEKLTILAKRKSLFDDKAVEIEELTYIIKQDINSLNKQIAQLQDFVRAKGSQSGRHLQTHSNTIVVSLQSKLASMSNDFKSVLEVRTENLKQQRSRREQFSRAPVSALPLAPNHLGGGAVVLGAESHASKDVAIDMMDSRTSQQLQLIDEQDSYIQSRADTMQNIESTIVELGSIFQQLAHMVKEQEETIQRIDENVLGAQLDVEAAHSEILKYFQSVTSNRWLMVKIFLILIVFFIIFVVFLA
As for B2, the binding entry with FLAG-BirA*-∆F508-CFTR is “binds”.

B3: Syntaxin 18 (STX18) (protein, UniProt Q9P2W9 1-335)
chain: MAVDITLLFRASVKTVKTRNKALGVAVGGGVDGSRDELFRRSPRPKGDFSSRAREVISHIGKLRDFLLEHRKDYINAYSHTMSEYGRMTDTERDQIDQDAQIFMRTCSEAIQQLRTEAHKEIHSQQVKEHRTAVLDFIEDYLKRVCKLYSEQRAIRVKRVVDKKRLSKLEPEPNTKTRESTSSEKVSQSPSKDSEENPATEERPEKILAETQPELGTWGDGKGEDELSPEEIQMFEQENQRLIGEMNSLFDEVRQIEGRVVEISRLQEIFTEKVLQQEAEIDSIHQLVVGATENIKEGNEDIREAIKNNAGFRVWILFFLVMCSFSLLFLDWYDS
Regarding B3, in the assay with FLAG-BirA*-∆F508-CFTR, the binding result was “binds”.

B4: Solute Carrier protein family 30A9 (SLC30A9) (protein, UniProt Q6PML9 68-568)
chain: STNVQKEGQGSQTLRVEKVPSFETAEGIGTELKAPLKQEPLQVRVKAVLKKREYGSKYTQNNFITGVRAINEFCLKSSDLEQLRKIRRRSPHEDTESFTVYLRSDVEAKSLEVWGSPEALAREKKLRKEAEIEYRERLFRNQKILREYRDFLGNTKPRSRTASVFFKGPGKVVMVAICINGLNCFFKFLAWIYTGSASMFSEAIHSLSDTCNQGLLALGISKSVQTPDPSHPYGFSNMRYISSLISGVGIFMMGAGLSWYHGVMGLLHPQPIESLLWAYCILAGSLVSEGATLLVAVNELRRNARAKGMSFYKYVMESRDPSTNVILLEDTAAVLGVIIAATCMGLTSITGNPLYDSLGSLGVGTLLGMVSAFLIYTNTEALLGRSIQPEQVQRLTELLENDPSVRAIHDVKATDLGLGKVRFKAEVDFDGRVVTRSYLEKQDFDQMLQEIQEVKTPEELETFMLKHGENIIDTLGAEVDRLEKELKKRNPEVRHVDLEIL
On to B4, for which the binding result in the assay with FLAG-BirA*-∆F508-CFTR is “binds”.

B5: BAG5 (Bcl2-associated athanogene 5) (protein, UniProt Q9UL15 1-447)
chain: MDMGNQHPSISRLQEIQKEVKSVEQQVIGFSGLSDDKNYKKLERILTKQLFEIDSVDTEGKGDIQQARKRAAQETERLLKELEQNANHPHRIEIQNIFEEAQSLVREKIVPFYNGGNCVTDEFEEGIQDIILRLTHVKTGGKISLRKARYHTLTKICAVQEIIEDCMKKQPSLPLSEDAHPSVAKINFVMCEVNKARGVLIALLMGVNNNETCRHLSCVLSGLIADLDALDVCGRTEIRNYRREVVEDINKLLKYLDLEEEADTTKAFDLRQNHSILKIEKVLKRMREIKNELLQAQNPSELYLSSKTELQGLIGQLDEVSLEKNPCIREARRRAVIEVQTLITYIDLKEALEKRKLFACEEHPSHKAVWNVLGNLSEIQGEVLSFDGNRTDKNYIRLEELLTKQLLALDAVDPQGEEKCKAARKQAVRLAQNILSYLDLKSDEWEY
B5: the binding result in the assay with FLAG-BirA*-∆F508-CFTR is reported as “binds”.

B6: Syntaxin-12 (STX12) (protein, UniProt Q86Y82 1-276)
chain: MSYGPLDMYRNPGPSGPQLRDFSSIIQTCSGNIQRISQATAQIKNLMSQLGTKQDSSKLQENLQQLQHSTNQLAKETNELLKELGSLPLPLSTSEQRQQRLQKERLMNDFSAALNNFQAVQRRVSEKEKESIARARAGSRLSAEERQREEQLVSFDSHEEWNQMQSQEDEVAITEQDLELIKERETAIRQLEADILDVNQIFKDLAMMIHDQGDLIDSIEANVESSEVHVERATEQLQRAAYYQKKSRKKMCILVLVLSVIILILGLIIWLVYKTK
Turning to B6, the binding result with FLAG-BirA*-∆F508-CFTR is “binds”.

B7: VANGL1 (protein, UniProt Q8TAA9 1-524)
chain: MDTESTYSGYSYYSSHSKKSHRQGERTRERHKSPRNKDGRGSEKSVTIQPPTGEPLLGNDSTRTEEVQDDNWGETTTAITGTSEHSISQEDIARISKDMEDSVGLDCKRYLGLTVASFLGLLVFLTPIAFILLPPILWRDELEPCGTICEGLFISMAFKLLILLIGTWALFFRKRRADMPRVFVFRALLLVLIFLFVVSYWLFYGVRILDSRDRNYQGIVQYAVSLVDALLFIHYLAIVLLELRQLQPMFTLQVVRSTDGESRFYSLGHLSIQRAALVVLENYYKDFTIYNPNLLTASKFRAAKHMAGLKVYNVDGPSNNATGQSRAMIAAAARRRDSSHNELYYEEAEHERRVKKRKARLVVAVEEAFIHIQRLQAEEQQKAPGEVMDPREAAQAIFPSMARALQKYLRITRQQNYHSMESILQHLAFCITNGMTPKAFLERYLSAGPTLQYDKDRWLSTQWRLVSDEAVTNGLRDGIVFVLKCLDFSLVVNVKKIPFIILSEEFIDPKSHKFVLRLQSETSV
Turning to B7, the binding entry with FLAG-BirA*-∆F508-CFTR was “binds”.

B8: Ubiquitin Specific Peptidase 19 (USP19) (protein, UniProt O94966 1-1318)
chain: MSGGASATGPRRGPPGLEDTTSKKKQKDRANQESKDGDPRKETGSRYVAQAGLEPLASGDPSASASHAAGITGSRHRTRLFFPSSSGSASTPQEEQTKEGACEDPHDLLATPTPELLLDWRQSAEEVIVKLRVGVGPLQLEDVDAAFTDTDCVVRFAGGQQWGGVFYAEIKSSCAKVQTRKGSLLHLTLPKKVPMLTWPSLLVEADEQLCIPPLNSQTCLLGSEENLAPLAGEKAVPPGNDPVSPAMVRSRNPGKDDCAKEEMAVAADAATLVDEPESMVNLAFVKNDSYEKGPDSVVVHVYVKEICRDTSRVLFREQDFTLIFQTRDGNFLRLHPGCGPHTTFRWQVKLRNLIEPEQCTFCFTASRIDICLRKRQSQRWGGLEAPAARVGGAKVAVPTGPTPLDSTPPGGAPHPLTGQEEARAVEKDKSKARSEDTGLDSVATRTPMEHVTPKPETHLASPKPTCMVPPMPHSPVSGDSVEEEEEEEKKVCLPGFTGLVNLGNTCFMNSVIQSLSNTRELRDFFHDRSFEAEINYNNPLGTGGRLAIGFAVLLRALWKGTHHAFQPSKLKAIVASKASQFTGYAQHDAQEFMAFLLDGLHEDLNRIQNKPYTETVDSDGRPDEVVAEEAWQRHKMRNDSFIVDLFQGQYKSKLVCPVCAKVSITFDPFLYLPVPLPQKQKVLPVFYFAREPHSKPIKFLVSVSKENSTASEVLDSLSQSVHVKPENLRLAEVIKNRFHRVFLPSHSLDTVSPSDTLLCFELLSSELAKERVVVLEVQQRPQVPSVPISKCAACQRKQQSEDEKLKRCTRCYRVGYCNQLCQKTHWPDHKGLCRPENIGYPFLVSVPASRLTYARLAQLLEGYARYSVSVFQPPFQPGRMALESQSPGCTTLLSTGSLEAGDSERDPIQPPELQLVTPMAEGDTGLPRVWAAPDRGPVPSTSGISSEMLASGPIEVGSLPAGERVSRPEAAVPGYQHPSEAMNAHTPQFFIYKIDSSNREQRLEDKGDTPLELGDDCSLALVWRNNERLQEFVLVASKELECAEDPGSAGEAARAGHFTLDQCLNLFTRPEVLAPEEAWYCPQCKQHREASKQLLLWRLPNVLIVQLKRFSFRSFIWRDKINDLVEFPVRNLDLSKFCIGQKEEQLPSYDLYAVINHYGGMIGGHYTACARLPNDRSSQRSDVGWRLFDDSTVTTVDESQVVTRYAYVLFYRRRNSPVERPPRAGHSEHHPDLGPAAEAAASQASRIWQELEAEEEPVPEGSGPLGPWGPQDWVGPLPRGPTTPDEGCLRYFVLGTVAALVALVLNVFYPLVSQSRWR
Take B8: in assay [1], the binding entry is reported as “binds”.
